Drawing on article PMC11106335, this text covers binding for 2 substances.

By UniProt entry, the sequences of proteins in these tests, tags left out.
UniProt Q14258: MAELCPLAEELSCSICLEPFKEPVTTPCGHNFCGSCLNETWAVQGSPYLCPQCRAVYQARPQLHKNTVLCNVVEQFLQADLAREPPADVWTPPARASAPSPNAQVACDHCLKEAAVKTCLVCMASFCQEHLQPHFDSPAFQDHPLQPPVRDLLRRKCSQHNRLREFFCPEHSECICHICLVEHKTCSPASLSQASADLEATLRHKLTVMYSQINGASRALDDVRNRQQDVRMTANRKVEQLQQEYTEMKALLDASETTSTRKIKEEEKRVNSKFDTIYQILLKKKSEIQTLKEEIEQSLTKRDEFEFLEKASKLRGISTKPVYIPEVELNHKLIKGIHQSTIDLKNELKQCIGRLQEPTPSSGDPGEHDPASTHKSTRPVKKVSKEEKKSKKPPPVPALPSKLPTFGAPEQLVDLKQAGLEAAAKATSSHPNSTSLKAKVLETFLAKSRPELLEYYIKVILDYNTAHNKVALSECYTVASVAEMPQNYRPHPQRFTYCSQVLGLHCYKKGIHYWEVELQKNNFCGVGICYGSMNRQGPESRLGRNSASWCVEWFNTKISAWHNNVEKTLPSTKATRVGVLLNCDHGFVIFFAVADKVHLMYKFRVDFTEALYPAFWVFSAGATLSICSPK
UniProt Q9UN79: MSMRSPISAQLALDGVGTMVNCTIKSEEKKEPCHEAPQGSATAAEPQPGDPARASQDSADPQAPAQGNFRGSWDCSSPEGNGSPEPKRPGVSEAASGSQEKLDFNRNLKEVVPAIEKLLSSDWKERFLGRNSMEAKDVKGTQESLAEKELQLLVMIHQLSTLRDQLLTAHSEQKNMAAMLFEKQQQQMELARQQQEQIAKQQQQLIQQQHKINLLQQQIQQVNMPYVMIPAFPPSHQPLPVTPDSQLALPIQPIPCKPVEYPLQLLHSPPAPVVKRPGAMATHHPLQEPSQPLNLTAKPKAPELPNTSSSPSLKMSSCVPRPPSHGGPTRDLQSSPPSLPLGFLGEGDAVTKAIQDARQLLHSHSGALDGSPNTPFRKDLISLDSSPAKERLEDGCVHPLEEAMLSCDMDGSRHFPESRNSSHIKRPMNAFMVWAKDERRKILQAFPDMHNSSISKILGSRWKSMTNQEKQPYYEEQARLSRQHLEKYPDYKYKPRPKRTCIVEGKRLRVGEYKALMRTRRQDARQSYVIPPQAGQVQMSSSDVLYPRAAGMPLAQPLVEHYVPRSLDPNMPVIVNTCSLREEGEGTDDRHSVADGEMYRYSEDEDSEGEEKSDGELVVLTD

Assay [1] addresses endogenous TRIM25 (human (endogenous in gastric cancer cells, line not named for this experiment)) (UniProt Q14258). The experiment in a line: co-IP; endogenous proteins, cells in the presence or absence of zanamivir; cell supernatant incubated overnight with primary antibody at 4 °C, then 4 h with protein A/G Sepharose beads; Western blot. For orientation: In western blotting, separated proteins are transferred to a membrane and probed.

The target of assay [2] is TRIM25 (partner of exogenous SOX13 in the co-IP) (UniProt Q14258). Kind of assay: co-IP; exogenous SOX13 expressed in cells; cell supernatant incubated overnight with primary antibody at 4 °C, then 4 h with protein A/G Sepharose beads; Western blot.

These are yes or no findings as the source states them, for the method shown. In cells and extracts the contact can be indirect. Some binding calls cover weakened binding; strength is not graded here.

Regarding “endogenous SOX13 (from UniProt Q9UN79 1-622)”, in assay [1], the binding result is given as “binds”. “exogenous SOX13 (from UniProt Q9UN79 1-622)”: the binding result in assay [2] is given as “binds”.
